± gives the standard deviation of the averaged measurements. This is a selection; strong and weak results do not stand in their true shares.
Compound: Nc1ncnc2c1ncn2[C@@H]1O[C@H](COP(=O)(O)OP(=O)(O)NP(=O)(O)O)[C@@H](O)[C@H]1O [adenylyl imidodiphosphate]
Assay: NP40-soluble protein abundance relative to vehicle (solubility fold change) (ratio); higher = more soluble protein in presence of AMP-PNP
Outline: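 Values are fold changes against the detergent-processed vehicle, based on vsn-normalised intensities. Jurkat crude lysate was treated at eight concentrations from 0.1 to 10 mM (10 min at room temperature, then 3 min at 37 °C), solubilised with 0.8% NP40 and benzonase, ultracentrifuged and analysed by TMT-labelled LC-MS/MS over three independent experiments.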

The chains behind the UniProt entries cited, without tags or fusion partners. Where a name states a change or a piece, a line headed by the entry shows the natural chain unless it says otherwise.
UniProt Q9UL63, whole entry: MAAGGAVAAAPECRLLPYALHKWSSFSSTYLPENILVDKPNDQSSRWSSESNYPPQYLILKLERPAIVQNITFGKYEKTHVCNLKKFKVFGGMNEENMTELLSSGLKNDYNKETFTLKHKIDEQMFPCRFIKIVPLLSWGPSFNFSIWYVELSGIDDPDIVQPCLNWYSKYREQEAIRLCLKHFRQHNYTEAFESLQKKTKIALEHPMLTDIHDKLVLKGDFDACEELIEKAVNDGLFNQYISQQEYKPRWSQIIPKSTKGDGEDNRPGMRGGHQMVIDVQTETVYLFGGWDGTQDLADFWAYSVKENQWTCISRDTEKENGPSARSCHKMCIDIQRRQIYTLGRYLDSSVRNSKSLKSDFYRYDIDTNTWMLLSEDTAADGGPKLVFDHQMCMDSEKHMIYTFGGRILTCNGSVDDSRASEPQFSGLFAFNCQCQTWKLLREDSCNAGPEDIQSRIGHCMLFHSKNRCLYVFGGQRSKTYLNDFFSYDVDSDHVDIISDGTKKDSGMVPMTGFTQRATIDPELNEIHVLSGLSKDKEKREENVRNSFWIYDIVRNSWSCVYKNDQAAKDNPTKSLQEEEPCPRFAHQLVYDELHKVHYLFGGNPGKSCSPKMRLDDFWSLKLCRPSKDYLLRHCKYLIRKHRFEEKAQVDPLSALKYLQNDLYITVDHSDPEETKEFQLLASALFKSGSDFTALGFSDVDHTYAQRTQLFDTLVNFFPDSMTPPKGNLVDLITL
UniProt Q9UHV9, whole entry: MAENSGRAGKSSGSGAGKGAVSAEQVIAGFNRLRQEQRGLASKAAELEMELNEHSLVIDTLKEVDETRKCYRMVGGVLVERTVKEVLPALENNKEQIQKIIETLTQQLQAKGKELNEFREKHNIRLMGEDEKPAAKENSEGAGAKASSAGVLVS
UniProt Q9UBT2: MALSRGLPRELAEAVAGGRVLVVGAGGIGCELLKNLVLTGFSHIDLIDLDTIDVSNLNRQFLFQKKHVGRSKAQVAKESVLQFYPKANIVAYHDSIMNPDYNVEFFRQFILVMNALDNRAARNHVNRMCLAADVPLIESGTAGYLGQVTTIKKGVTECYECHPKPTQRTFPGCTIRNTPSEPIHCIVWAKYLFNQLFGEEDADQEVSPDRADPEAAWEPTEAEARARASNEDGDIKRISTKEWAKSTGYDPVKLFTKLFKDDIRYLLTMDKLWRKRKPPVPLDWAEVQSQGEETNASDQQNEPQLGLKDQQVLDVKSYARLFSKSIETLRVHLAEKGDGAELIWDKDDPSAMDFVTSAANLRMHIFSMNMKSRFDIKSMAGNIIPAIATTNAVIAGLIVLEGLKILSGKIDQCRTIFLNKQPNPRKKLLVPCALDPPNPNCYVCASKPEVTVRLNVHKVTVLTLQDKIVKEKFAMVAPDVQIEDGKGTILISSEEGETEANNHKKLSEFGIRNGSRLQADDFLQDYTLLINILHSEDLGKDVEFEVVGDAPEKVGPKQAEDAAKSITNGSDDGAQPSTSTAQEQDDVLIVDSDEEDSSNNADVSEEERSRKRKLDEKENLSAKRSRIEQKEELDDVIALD
UniProt Q9UIM3: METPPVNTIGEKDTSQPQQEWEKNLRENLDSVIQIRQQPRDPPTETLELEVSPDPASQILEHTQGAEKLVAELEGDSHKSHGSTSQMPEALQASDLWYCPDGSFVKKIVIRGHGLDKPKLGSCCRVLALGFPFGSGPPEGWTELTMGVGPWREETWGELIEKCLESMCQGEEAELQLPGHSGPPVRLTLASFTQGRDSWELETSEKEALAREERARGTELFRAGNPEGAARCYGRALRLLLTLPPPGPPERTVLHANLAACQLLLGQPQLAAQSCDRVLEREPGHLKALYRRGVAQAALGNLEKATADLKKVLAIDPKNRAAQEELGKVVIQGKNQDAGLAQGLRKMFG
UniProt Q9ULF5: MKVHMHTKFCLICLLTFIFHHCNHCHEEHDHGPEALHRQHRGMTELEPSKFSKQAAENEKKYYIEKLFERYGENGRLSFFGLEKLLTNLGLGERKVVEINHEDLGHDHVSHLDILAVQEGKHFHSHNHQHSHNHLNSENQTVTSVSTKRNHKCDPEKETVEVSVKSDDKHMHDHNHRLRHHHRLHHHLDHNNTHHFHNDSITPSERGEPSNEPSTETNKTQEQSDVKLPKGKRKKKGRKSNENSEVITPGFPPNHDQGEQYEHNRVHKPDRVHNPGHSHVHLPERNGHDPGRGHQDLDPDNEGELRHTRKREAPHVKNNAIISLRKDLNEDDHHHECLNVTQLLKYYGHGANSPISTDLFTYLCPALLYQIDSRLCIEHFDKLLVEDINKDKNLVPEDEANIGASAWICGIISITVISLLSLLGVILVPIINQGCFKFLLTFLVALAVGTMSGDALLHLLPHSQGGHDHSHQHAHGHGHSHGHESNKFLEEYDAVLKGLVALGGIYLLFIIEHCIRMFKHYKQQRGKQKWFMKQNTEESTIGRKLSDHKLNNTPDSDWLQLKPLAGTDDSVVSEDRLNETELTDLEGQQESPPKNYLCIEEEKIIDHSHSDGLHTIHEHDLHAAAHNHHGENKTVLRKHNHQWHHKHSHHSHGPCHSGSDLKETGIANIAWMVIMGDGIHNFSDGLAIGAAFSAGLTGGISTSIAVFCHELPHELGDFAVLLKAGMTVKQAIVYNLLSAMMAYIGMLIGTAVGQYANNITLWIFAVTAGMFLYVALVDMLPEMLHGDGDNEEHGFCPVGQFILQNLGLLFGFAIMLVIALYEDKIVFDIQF
UniProt Q9Y2X3: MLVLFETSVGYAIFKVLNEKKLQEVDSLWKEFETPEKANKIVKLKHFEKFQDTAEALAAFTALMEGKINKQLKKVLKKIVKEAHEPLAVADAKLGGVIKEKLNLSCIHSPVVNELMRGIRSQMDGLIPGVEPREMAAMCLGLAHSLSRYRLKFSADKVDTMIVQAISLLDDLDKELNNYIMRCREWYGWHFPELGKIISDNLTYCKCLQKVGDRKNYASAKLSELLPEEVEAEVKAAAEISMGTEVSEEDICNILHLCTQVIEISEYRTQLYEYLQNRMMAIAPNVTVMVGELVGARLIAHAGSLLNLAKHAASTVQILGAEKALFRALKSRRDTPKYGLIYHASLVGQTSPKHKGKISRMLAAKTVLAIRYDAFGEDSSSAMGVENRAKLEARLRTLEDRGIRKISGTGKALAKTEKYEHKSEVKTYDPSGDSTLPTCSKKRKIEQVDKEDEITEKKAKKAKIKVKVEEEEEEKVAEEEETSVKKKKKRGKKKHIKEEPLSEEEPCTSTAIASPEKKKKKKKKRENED
UniProt Q9UGJ1, whole entry: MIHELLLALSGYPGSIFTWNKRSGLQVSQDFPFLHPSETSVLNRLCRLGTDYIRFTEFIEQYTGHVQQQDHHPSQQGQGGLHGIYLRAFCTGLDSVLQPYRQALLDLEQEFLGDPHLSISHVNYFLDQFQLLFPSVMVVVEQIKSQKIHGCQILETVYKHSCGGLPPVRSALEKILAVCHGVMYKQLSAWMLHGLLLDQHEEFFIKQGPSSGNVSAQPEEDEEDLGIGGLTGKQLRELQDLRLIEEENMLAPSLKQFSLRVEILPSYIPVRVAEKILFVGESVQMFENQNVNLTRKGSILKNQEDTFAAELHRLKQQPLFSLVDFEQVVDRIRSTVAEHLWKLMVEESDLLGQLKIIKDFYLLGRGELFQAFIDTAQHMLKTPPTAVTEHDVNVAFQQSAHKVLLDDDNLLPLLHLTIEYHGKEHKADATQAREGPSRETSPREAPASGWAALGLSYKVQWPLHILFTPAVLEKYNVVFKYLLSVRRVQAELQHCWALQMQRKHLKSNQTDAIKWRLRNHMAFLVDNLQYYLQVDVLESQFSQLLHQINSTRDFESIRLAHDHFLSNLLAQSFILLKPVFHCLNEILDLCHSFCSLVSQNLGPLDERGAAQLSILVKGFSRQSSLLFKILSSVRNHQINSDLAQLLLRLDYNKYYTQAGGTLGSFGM
UniProt Q9Y3D8, whole entry: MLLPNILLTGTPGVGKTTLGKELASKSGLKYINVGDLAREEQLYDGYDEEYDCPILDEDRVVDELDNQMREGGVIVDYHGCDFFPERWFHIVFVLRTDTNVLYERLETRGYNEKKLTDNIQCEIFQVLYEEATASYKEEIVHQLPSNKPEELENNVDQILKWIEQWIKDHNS
UniProt Q9UKV5, whole entry: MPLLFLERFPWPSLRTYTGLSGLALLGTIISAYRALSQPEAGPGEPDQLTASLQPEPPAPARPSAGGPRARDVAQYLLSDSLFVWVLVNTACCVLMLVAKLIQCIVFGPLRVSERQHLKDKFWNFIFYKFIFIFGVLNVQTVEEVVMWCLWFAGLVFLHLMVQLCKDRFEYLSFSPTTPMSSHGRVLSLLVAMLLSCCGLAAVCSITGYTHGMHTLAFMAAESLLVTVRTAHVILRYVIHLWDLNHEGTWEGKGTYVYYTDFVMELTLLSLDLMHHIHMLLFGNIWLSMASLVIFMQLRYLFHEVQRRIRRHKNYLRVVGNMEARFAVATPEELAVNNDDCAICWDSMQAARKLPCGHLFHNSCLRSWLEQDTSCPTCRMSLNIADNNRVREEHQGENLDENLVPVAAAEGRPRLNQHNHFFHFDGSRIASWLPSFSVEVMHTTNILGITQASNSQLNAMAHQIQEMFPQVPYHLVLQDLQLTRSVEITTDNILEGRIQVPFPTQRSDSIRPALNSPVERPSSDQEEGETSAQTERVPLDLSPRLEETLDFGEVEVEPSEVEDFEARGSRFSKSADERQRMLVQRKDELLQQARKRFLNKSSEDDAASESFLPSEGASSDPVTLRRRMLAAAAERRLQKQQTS
UniProt Q9Y3D0: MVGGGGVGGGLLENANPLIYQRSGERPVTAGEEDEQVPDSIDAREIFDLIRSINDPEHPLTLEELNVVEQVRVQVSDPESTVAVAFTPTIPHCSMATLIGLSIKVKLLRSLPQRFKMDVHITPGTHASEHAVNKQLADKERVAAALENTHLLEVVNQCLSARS
UniProt Q9UKB1: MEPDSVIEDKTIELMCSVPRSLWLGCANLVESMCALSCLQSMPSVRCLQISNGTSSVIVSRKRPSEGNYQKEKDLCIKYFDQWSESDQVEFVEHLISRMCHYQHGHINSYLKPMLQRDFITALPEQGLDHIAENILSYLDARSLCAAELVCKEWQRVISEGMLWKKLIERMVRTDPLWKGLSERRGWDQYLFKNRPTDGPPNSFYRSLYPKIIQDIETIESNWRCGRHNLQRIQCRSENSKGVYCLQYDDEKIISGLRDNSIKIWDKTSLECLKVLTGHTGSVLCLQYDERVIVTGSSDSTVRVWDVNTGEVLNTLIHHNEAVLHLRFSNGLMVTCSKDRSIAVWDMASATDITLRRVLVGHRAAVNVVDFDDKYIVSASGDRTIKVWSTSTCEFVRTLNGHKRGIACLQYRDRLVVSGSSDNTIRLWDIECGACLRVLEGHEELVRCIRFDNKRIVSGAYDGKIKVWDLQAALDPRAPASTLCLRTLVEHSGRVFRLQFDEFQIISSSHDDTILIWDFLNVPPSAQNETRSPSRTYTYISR
UniProt Q9Y277: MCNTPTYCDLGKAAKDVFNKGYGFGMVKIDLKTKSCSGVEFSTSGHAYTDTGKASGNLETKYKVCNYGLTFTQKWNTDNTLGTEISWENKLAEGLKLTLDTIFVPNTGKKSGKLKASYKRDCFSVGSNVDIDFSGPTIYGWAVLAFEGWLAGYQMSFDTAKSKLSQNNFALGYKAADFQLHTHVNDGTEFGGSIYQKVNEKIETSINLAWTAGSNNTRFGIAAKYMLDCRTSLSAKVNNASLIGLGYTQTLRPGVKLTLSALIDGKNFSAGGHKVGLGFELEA
UniProt Q9Y224: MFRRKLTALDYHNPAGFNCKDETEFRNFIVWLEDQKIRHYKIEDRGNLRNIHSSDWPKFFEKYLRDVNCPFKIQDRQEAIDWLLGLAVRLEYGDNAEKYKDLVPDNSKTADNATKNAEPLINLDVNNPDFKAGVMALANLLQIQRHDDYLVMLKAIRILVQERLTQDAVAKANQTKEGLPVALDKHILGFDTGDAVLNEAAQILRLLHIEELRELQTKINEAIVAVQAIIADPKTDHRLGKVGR
UniProt Q9Y2G2: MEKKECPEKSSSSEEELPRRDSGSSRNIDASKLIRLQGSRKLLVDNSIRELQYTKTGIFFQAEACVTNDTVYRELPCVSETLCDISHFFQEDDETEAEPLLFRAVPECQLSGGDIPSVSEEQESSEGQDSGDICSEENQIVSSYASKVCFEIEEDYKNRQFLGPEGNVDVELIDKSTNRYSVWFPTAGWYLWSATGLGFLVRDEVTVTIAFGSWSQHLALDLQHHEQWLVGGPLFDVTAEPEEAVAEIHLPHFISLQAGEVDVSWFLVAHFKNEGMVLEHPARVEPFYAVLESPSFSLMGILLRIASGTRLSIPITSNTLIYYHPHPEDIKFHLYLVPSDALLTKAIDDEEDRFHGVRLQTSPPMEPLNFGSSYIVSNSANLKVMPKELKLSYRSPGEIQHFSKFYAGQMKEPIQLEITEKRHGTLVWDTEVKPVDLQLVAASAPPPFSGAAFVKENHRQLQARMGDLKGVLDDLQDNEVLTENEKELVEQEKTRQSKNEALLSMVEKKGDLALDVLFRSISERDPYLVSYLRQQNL

Target	NP40-soluble protein abundance (concentration: 1mM)	NP40-soluble protein abundance (concentration: 2mM)	NP40-soluble protein abundance (concentration: 4mM)	NP40-soluble protein abundance (concentration: 6mM)	NP40-soluble protein abundance (concentration: 8mM)	NP40-soluble protein abundance (concentration: 10mM)
UniProt Q9UL63 and related entries	0.984 ± 0.065	0.968 ± 0.061	0.994 ± 0.041	0.937 ± 0.085	0.934 ± 0.092	0.922 ± 0.12
UniProt Q9Y2H0 and related entries	0.986 ± 0.045	1.02 ± 0.08	0.98 ± 0.037	0.975 ± 0.019	0.969 ± 0.027	0.965 ± 0.027
VPS4A (UniProt Q9UN37)	1.02 ± 0.043	1.06 ± 0.027	1.02 ± 0.056	1 ± 0.099	0.961 ± 0.076	0.967 ± 0.044
DUSP12 (UniProt Q9UNI6)	0.9745 ± 0.0053	0.979 ± 0.014	0.971 ± 0.01	1 ± 0.067	0.98 ± 0.069	0.983 ± 0.059
PFDN2 (UniProt Q9UHV9)	1.05 ± 0.084	1.11 ± 0.11	0.986 ± 0.062	0.928 ± 0.1	0.85 ± 0.016	0.941 ± 0.083
UniProt Q9ULK6 and related entries	0.98 ± 0.057	1.1 ± 0.21	0.975 ± 0.038	0.995 ± 0.045	0.963 ± 0.011	1.05 ± 0.048
BCS1L (UniProt Q9Y276)	0.966 ± 0.021	0.874 ± 0.11	0.996 ± 0.024	0.955 ± 0.035	0.982 ± 0.024	0.937 ± 0.035
UniProt Q9UBT2 and related entries	1.02 ± 0.032	0.989 ± 0.03	0.99 ± 0.029	1.02 ± 0.05	1.04 ± 0.02	1.02 ± 0.061
FKBPL (UniProt Q9UIM3)	1 ± 0.024	1.02 ± 0.019	0.982 ± 0.034	0.97 ± 0.038	0.989 ± 0.034	1.01 ± 0.038
SLC39A10 (UniProt Q9ULF5)	0.998 ± 0.021	1.07 ± 0.045	1.01 ± 0.026	1 ± 0.029	0.985 ± 0.04	0.994 ± 0.036
POMP (UniProt Q9Y244)	0.997 ± 0.06	1.02 ± 0.056	0.919 ± 0.045	0.947 ± 0.018	0.918 ± 0.011	0.902 ± 0.03
MRPS23 (UniProt Q9Y3D9)	0.922 ± 0.039	0.922 ± 0.072	0.898 ± 0.1	0.939 ± 0.045	0.926 ± 0.089	0.892 ± 0.14
UniProt Q9UIG0 and related entries	1.04 ± 0.048	1.08 ± 0.055	1.11 ± 0.046	1.23 ± 0.074	1.3 ± 0.11	1.45 ± 0.16
NOP58 (UniProt Q9Y2X3)	1.11 ± 0.021	1.17 ± 0.013	1.17 ± 0.014	1.24 ± 0.054	1.32 ± 0.033	1.46 ± 0.057
UniProt Q9Y2H6 and related entries	0.9978 ± 0.0022	1.04 ± 0.014	1.007 ± 0.01	0.988 ± 0.014	0.9858 ± 0.0089	1 ± 0.019
UniProt Q9UGJ1 and related entries	1.01 ± 0.037	1.01 ± 0.024	1.04 ± 0.05	1 ± 0.028	1 ± 0.091	1.03 ± 0.08
MRPS16 (UniProt Q9Y3D3)	0.975 ± 0.015	0.953 ± 0.051	0.939 ± 0.11	1 ± 0.038	1.02 ± 0.049	0.967 ± 0.093
UniProt Q9Y3D8 and related entries	1.01 ± 0.046	1.06 ± 0.019	1.02 ± 0.012	0.993 ± 0.017	1.01 ± 0.015	1.02 ± 0.02
UniProt Q9UKI8-5|Q9UKI8	0.984 ± 0.023	0.994 ± 0.028	1.01 ± 0.029	1.03 ± 0.036	1.01 ± 0.054	1.01 ± 0.056
AMFR (UniProt Q9UKV5)	0.983 ± 0.011	1.03 ± 0.056	1 ± 0.033	0.978 ± 0.014	0.964 ± 0.018	0.994 ± 0.011
UniProt Q9Y3D0	0.982 ± 0.053	0.979 ± 0.013	0.952 ± 0.062	0.961 ± 0.063	0.943 ± 0.051	0.924 ± 0.083
UniProt Q9UKB1 and related entries	0.995 ± 0.016	0.961 ± 0.04	0.983 ± 0.011	1.01 ± 0.036	1.008 ± 0.0086	0.986 ± 0.051
NOTCH3 (UniProt Q9UM47)	0.977 ± 0.029	1.02 ± 0.067	0.992 ± 0.022	0.974 ± 0.035	0.97 ± 0.03	0.963 ± 0.039
VDAC3 (UniProt Q9Y277)	0.964 ± 0.065	0.948 ± 0.037	0.988 ± 0.071	1.09 ± 0.14	1.12 ± 0.087	1.11 ± 0.071
DRG1 (UniProt Q9Y295)	0.997 ± 0.032	0.974 ± 0.019	1.01 ± 0.026	1.04 ± 0.053	1.05 ± 0.028	1.04 ± 0.04
DPP7 (UniProt Q9UHL4)	0.977 ± 0.041	0.98 ± 0.025	1 ± 0.041	1.02 ± 0.044	1.01 ± 0.057	1.02 ± 0.048
WDR3 (UniProt Q9UNX4)	1.07 ± 0.015	1.09 ± 0.1	1.33 ± 0.039	1.55 ± 0.026	1.8 ± 0.064	1.78 ± 0.15
UniProt Q9UI10 and related entries	1.03 ± 0.026	1.04 ± 0.029	1.04 ± 0.04	0.987 ± 0.039	0.9691 ± 0.0095	0.9702 ± 0.0062
UniProt Q9Y224	0.908 ± 0.057	1.01 ± 0.085	0.854 ± 0.056	0.839 ± 0.026	0.799 ± 0.03	0.763 ± 0.082
UniProt Q9Y2G2 and related entries	0.979 ± 0.033	0.999 ± 0.044	0.974 ± 0.041	0.974 ± 0.048	0.973 ± 0.044	0.992 ± 0.047

Reprinted from the listing for reference:
Target	NP40-soluble protein abundance (concentration: 1mM)	NP40-soluble protein abundance (concentration: 2mM)	NP40-soluble protein abundance (concentration: 4mM)	NP40-soluble protein abundance (concentration: 6mM)	NP40-soluble protein abundance (concentration: 8mM)	NP40-soluble protein abundance (concentration: 10mM)
NOTCH3 (UniProt Q9UM47)	0.977 ± 0.029	1.02 ± 0.067	0.992 ± 0.022	0.974 ± 0.035	0.97 ± 0.03	0.963 ± 0.039
VDAC3 (UniProt Q9Y277)	0.964 ± 0.065	0.948 ± 0.037	0.988 ± 0.071	1.09 ± 0.14	1.12 ± 0.087	1.11 ± 0.071

From the supplement of paper PMC6411743
